Data as given in PubChem BioAssay AID1259405 (NCATS, 2018).

- Screen: 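Silenced genes that increase secreted GFP made by CHO cells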 (primary screen)
- System: Chinese hamster CHO-K1 ovary cells with stable secreted eGFP expression
- Reagents: single siRNA against mouse genes, 0.8 pmol siRNA per well (2 µl of 400 nM stock)
- Duration: 3 days
- Measurement: 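Percent of the per-plate non-targeting control median for intracellular GFP per well by laser scanning cytometry and for cell viability by ATP luminescence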
- Scale: GFP, % of control: higher = more GFP per well, higher productivity; viability (ATP), % of control: higher = more viable cells (more ATP)
- Rule for the call: 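Called active when intracellular GFP, relative to negative control, is at or above 120%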
Shown is a random part of about 50,000 reagents. Over the whole deposit, about 4,000 (8%) are marked active. 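Mouse siRNA library applied to hamster cells; one well for each siRNA.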 The numbers tell different reagents against one gene apart.

Target gene,reagent,"GFP, % of control","viability (ATP), % of control",Outcome
Zic2,1,91.4,110,inactive
Zic2,2,71.6,94.6,inactive
Trim30a,1,119,70,inactive
Trim30a,2,67.8,67.8,inactive
Trim30a,3,48.3,49.3,inactive
Zfhx4,1,207,70.7,active
Zfhx4,2,75.1,75.4,inactive
Zfhx4,3,54.4,47.8,inactive
Tsx,1,70.6,69.5,inactive
Tsx,2,98.1,117,inactive
Tsx,3,85.4,60.5,inactive
Tmem126a,1,64.8,64.4,inactive
Tmem126a,2,77.6,80.6,inactive
Tmem126a,3,62.4,88,inactive
Rnf135,1,103,105,inactive
Rnf135,2,144,114,active
Rnf135,3,88.7,138,inactive
Gzf1,1,26.9,40.2,inactive
Gzf1,2,46.6,60.5,inactive
Gzf1,3,56.8,79.9,inactive

Already shown: 10 of the entries above.
Target gene,reagent,"GFP, % of control","viability (ATP), % of control",Outcome
Trim30a,1,119,70,inactive
Trim30a,2,67.8,67.8,inactive
Trim30a,3,48.3,49.3,inactive
Zfhx4,1,207,70.7,active
Zfhx4,2,75.1,75.4,inactive
Zfhx4,3,54.4,47.8,inactive
Tsx,1,70.6,69.5,inactive
Tsx,2,98.1,117,inactive
Tsx,3,85.4,60.5,inactive
Tmem126a,1,64.8,64.4,inactive

Additional records follow:
Target gene,reagent,"GFP, % of control","viability (ATP), % of control",Outcome
Mfap5,1,62.5,66.8,inactive
Mfap5,2,50.8,70.1,inactive
Mfap5,3,82.2,48.1,inactive
Ankrd46,1,71,67.4,inactive
Ankrd46,2,61.6,89.8,inactive
Ankrd46,3,107,80.3,inactive
Or2a14,1,67.6,38,inactive
Or2a14,2,79.6,83.2,inactive
Or2a14,3,91.9,89.8,inactive
Ssrp1,1,74.3,69.6,inactive
Ssrp1,2,114,95.4,inactive
Yif1a,1,30.5,50,inactive
Yif1a,2,61.1,76.2,inactive
Yif1a,3,77.6,82.5,inactive
Stambpl1,1,105,118,inactive
Stambpl1,2,69.6,65.5,inactive
Omt2b,1,83.5,47,inactive
Omt2b,2,70.9,78.5,inactive
Omt2b,3,74.9,41.6,inactive
Ppp2r2d,1,112,124,inactive
Ppp2r2d,2,81.5,72,inactive
Ppp2r2d,3,85.8,83.8,inactive
AY702103,1,69.2,72.9,inactive
AY702103,2,55.5,57.2,inactive
AY702103,3,83.1,51.1,inactive
Acadsb,1,48.4,58.8,inactive
Acadsb,2,74.8,67.4,inactive
Acadsb,3,107,100,inactive
Dok2,1,64.3,80.7,inactive
Dok2,2,77,75.3,inactive
Dok2,3,65.7,74.9,inactive
Gapt,1,76,71.8,inactive
Gapt,2,53,68.7,inactive
Gapt,3,87.2,69.8,inactive
Pabpc1,1,71.6,61.2,inactive
Pabpc1,2,31.9,37.1,inactive
Myl3,1,52.4,40.9,inactive
Myl3,2,56,77.8,inactive
